# Laboratory results: PubChem BioAssay AID504744 (Drosophila RNAi Screening Center, 2011)
# Aim: 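Identify dsRNAs that increase or decrease phospho-dAkt after insulin treatment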 (primary screen)
# Cells: Drosophila Kc167 cells
# Reagents: long dsRNA against Drosophila genes, 250 ng dsRNA per well of a 384-well plate
# Timing: 3 days of knock-down, then overnight serum-free starvation before stimulation
# Treatment: bovine insulin at 387 nM for 10 minutes after 12 h without serum
# Detection: 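In-cell antibody fluorescence for phospho-dAkt in each well over DNA-dye signal, with log2 residuals expressed as z-scores adjusted for cell count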
# Hit rule: 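Under insulin, a gene counts as a hit if the average z-score of two replicates lies above 2.5 or below -2.5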
# The deposit covers about 23,000 reagents; below is a random part of those that have a named target and a result. Of all reagents, 98 (0.43%) were called active. 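Only hit calls are given; the phospho-dAkt signals, z-scores and hit direction were not deposited.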 Reagents against one gene are numbered here. A plus sign joins genes that one reagent is predicted to hit. No sequences are given here.
gene knocked down,dsRNA no.,Outcome
CG33282,1,inactive
CG2906,1,inactive
CG42383,1,inactive
CG42493,1,inactive
CG9143,1,inactive
CG13231,1,inactive
chinmo (Chronologically inappropriate morphogenesis),1,inactive
chinmo (Chronologically inappropriate morphogenesis),2,inactive
chinmo (Chronologically inappropriate morphogenesis),3,inactive
chinmo (Chronologically inappropriate morphogenesis),4,inactive
Gsc (Goosecoid),1,inactive
gammaTub37C (gamma-Tubulin at 37C),1,inactive
CG31798,1,inactive
CG17681,1,inactive
Nbr (Nibbler),1,inactive
CG43338,1,inactive
Taf10b + Taf10,1,inactive
arm (armadillo),1,inactive
Sgf11 (SAGA associated factor 11kDa),1,inactive
loco (locomotion defects),1,inactive
loco (locomotion defects),2,active
CROT (Carnitine O-octanoyltransferase),1,inactive
CROT (Carnitine O-octanoyltransferase),2,inactive
CG4213,1,inactive
Jhbp3 (Juvenile hormone binding protein 3),1,inactive
Atf6,1,inactive
Atf6,2,inactive
ko (knockout),1,inactive
cn (cinnabar),1,inactive
CG15358,1,inactive
ACXD (Adenylyl cyclase X D),1,inactive
RpL29 (Ribosomal protein L29),1,inactive
CG34355,1,inactive
CG34355,2,inactive
CG34355,3,inactive
CG34355,4,inactive
CG31482,1,inactive
CG17129,1,inactive
CG10962,1,inactive
Trp1 (Translocation protein 1),1,inactive
Naa20A (N(alpha)-acetyltransferase 20 A),1,inactive
Pcl (Polycomblike),1,inactive
CR33319 (pseudo),1,inactive
Ice1 (Interacts with the C terminus of ELL 1),1,inactive
CSN1a (COP9 signalosome subunit 1a),1,inactive
Papss (PAPS synthetase),1,inactive
repo (reversed polarity),1,inactive
siz (schizo),1,inactive
siz (schizo),2,inactive
siz (schizo),3,inactive
CG31294,1,inactive
CG11600,1,inactive
ND2 (retired record),1,inactive
CG42457 (retired record) + cpo,1,inactive
CG42457 (retired record) + cpo,2,inactive
CG42457 (retired record) + cpo,3,inactive
CG42457 (retired record) + cpo,4,inactive
TORIP (Torsin interacting protein),1,inactive
CG17746,1,inactive
CG17991,1,inactive
Gyc88E (Guanylyl cyclase at 88E),1,inactive
CG1146,1,inactive
CG12863,1,inactive
NTPase,1,inactive
CG8788,1,inactive
Mtpbeta (Mitochondrial trifunctional protein beta subunit),1,inactive
CG8757,1,inactive
Wee1 (Wee1 kinase),1,inactive
HERC2 (HECT and RLD domain containing protein 2),1,inactive
lncRNA:CR41601 (long non-coding RNA:CR41601),1,inactive
CG8372,1,inactive
CG10591,1,inactive
CG32603,1,inactive
CG32603,2,inactive
mRpS29 (mitochondrial ribosomal protein S29),1,inactive
CG43901,1,inactive
CG43901,2,inactive
CG42327,1,inactive
CG42327,2,inactive
ND-B16.6 (NADH dehydrogenase (ubiquinone) B16.6 subunit),1,inactive
ND-B16.6 (NADH dehydrogenase (ubiquinone) B16.6 subunit),2,inactive
CG8042,1,inactive
Bem46,1,inactive
ImpL1 (Ecdysone-inducible gene L1),1,inactive
CG1371,1,inactive
Slh (SLY-1 homologous),1,inactive
Traf6 (TNF-receptor-associated factor 6),1,inactive
Tsp42Ep (Tetraspanin 42Ep),1,inactive
SppL (Signal peptide peptidase-like),1,inactive
Octalpha2R (alpha2-adrenergic-like octopamine receptor),1,inactive
Octalpha2R (alpha2-adrenergic-like octopamine receptor),2,inactive
"Arpc1 (Actin-related protein 2/3 complex, subunit 1)",1,inactive
Eogt (EGF-domain O-GlcNAc transferase),1,inactive
wash (washout),1,inactive
CG3939,1,inactive
sca (scabrous),1,inactive
Ae2 (Anion exchanger 2),1,inactive
Ae2 (Anion exchanger 2),2,inactive
E2f1 (E2F transcription factor 1),1,inactive
pgc (polar granule component),1,inactive
Hsc70-5 (Heat shock protein 70 cognate 5),1,inactive
PIP5K59B (Phosphatidylinositol 4-phosphate 5-kinase 59B),1,inactive
PIP5K59B (Phosphatidylinositol 4-phosphate 5-kinase 59B),2,inactive
Drp1 (Dynamin related protein 1),1,inactive
bisc (biscotti),1,inactive
Phyhd1 (Phytanoyl-CoA dioxygenase domain containing 1),1,inactive
Oatp74D (Organic anion transporting polypeptide 74D),1,inactive
Oatp74D (Organic anion transporting polypeptide 74D),2,inactive
Ptp4E (Protein tyrosine phosphatase 4E),1,inactive
CG42445,1,inactive
Mcr (Macroglobulin complement-related),1,inactive
CG11275,1,inactive
CG3123,1,inactive
RapGAP1 (Rap GTPase activating protein 1),1,inactive
RapGAP1 (Rap GTPase activating protein 1),2,inactive
RapGAP1 (Rap GTPase activating protein 1),3,inactive
Cwc25,1,inactive
CG6126,1,inactive
Mlc-c (Myosin light chain cytoplasmic),1,inactive
"Lamtor3 (Late endosomal/lysosomal adaptor, MAPK and MTOR activator 3)",1,inactive
Ythdc1 (YTH domain containing 1),1,inactive
Adss (Adenylosuccinate synthetase),1,inactive
CG31974,1,inactive
NimB1 (Nimrod B1),1,inactive
AnxB11 (Annexin B11),1,inactive
CG7330,1,inactive
CG7330,2,inactive
MtnD (Metallothionein D),1,inactive
CG13285,1,inactive
CG30485,1,inactive
CG6012,1,inactive
CG4572,1,inactive
Gr32a (Gustatory receptor 32a),1,inactive
Osi16 (Osiris 16),1,inactive
Osi16 (Osiris 16),2,inactive
CG7806,1,inactive
CG2983,1,inactive
Doc2 (Dorsocross2),1,inactive
CG32590,1,inactive
Hexim (Hexamethylene bisacetamide inducible),1,inactive
Spt7,1,inactive
CG13506,1,inactive
fidipidine,1,inactive
CG12817,1,inactive
APP-BP1 (beta-Amyloid precursor protein binding protein 1),1,inactive
Cyp4d20 (Cytochrome P450 4d20),1,inactive
Rab2,1,inactive
sav (salvador),1,inactive
sav (salvador),2,inactive
pirk (poor Imd response upon knock-in),1,inactive
CG7236,1,inactive
Cpr47Ef (Cuticular protein 47Ef),1,inactive
Cpr47Ef (Cuticular protein 47Ef),2,inactive
CG12877,1,inactive
Ogg1 (8-oxoguanine DNA glycosylase),1,inactive
CG4306,1,inactive
ck (crinkled),1,inactive

Entries above with an active call, once more:
gene knocked down,dsRNA no.,Outcome
loco (locomotion defects),2,active
